The source of these data is paper PMC6245935, “Fructose-1,6-bisphosphate aldolase encoded by a core gene of Mycoplasma hyopneumoniae contributes to host cell adhesion” (Veterinary Research, 2018).

No constants are given. Whether binding was seen depends on the method and setting. Binding can be weak; no strength is given. Sequences can lack the tags named with a protein.

The experiment concerns the target T1, recombinant fructose-1,6-bisphosphate aldolase (rFBA) of Mycoplasma hyopneumoniae strain 168 (Mycoplasma hyopneumoniae strain 168) (UniProt E4QS16).
T1 sequence: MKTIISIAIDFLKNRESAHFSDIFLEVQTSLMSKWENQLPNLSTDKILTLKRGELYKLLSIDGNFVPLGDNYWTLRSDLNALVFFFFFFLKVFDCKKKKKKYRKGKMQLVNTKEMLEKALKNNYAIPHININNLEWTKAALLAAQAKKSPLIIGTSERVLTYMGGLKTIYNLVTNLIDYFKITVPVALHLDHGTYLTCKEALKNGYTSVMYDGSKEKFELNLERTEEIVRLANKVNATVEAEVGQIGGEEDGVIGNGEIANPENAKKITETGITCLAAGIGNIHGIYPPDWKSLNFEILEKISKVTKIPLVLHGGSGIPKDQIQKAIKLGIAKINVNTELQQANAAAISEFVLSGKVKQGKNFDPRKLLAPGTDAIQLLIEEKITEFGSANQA
The experiment in a line: far-Western, overlay or dot blot; 20 ug rFBA (or BSA as negative control) separated by SDS-PAGE and transferred to PVDF; blocked with 5% skimmed milk; incubated with 5 ug/mL fibronectin; detected with rabbit anti-fibronectin antibody and HRP anti-rabbit IgG, ECL; both purified.

Consider fibronectin, for which the binding result is given as “binds”.
